Results: patent US20230359121A1, “LITHOGRAPHIC PRINTING PLATE PRECURSOR, METHOD OF PREPARING LITHOGRAPHIC PRINTING PLATE, AND LITHOGRAPHIC PRINTING METHOD” (FUJIFILM Corporation, priority 2022, published 2023)
Several values for one entry are separate records, joined by “and”; a condition that tells them apart may be missing. Equal entries are not always repeated.

Columns and labels:
[1] = Molar absorption coefficient ε of colored substance generated from chromogenic agent; type: physicochemical; settings: at maximal absorption wavelength
[2] = Ring-opening rate and λmax of chromogenic agent; type: physicochemical; settings: for ring-opening rate: 1 molar equivalent of acid added; for maximal absorption wavelength (λmax): colored substance, visible region 380 nm to 750 nm

Row | SMILES | ε (molar absorption coefficient of colored substance) [1] | ring-opening rate [2] | maximal absorption wavelength (λmax) [2]
1 | COc1ccc(N(c2ccc3c(c2)Oc2cc(N(c4ccc(OC)cc4)c4ccc(OC)cc4C)ccc2C32OC(=O)c3ccccc32)c2ccc(OC)cc2C)cc1 [Example C-1] | 68,000 | 75% | 590 nm
2 | CCCCn1c(C)c(C2(c3ccc(N(C)C)cc3)OC(=O)c3cc(N(C)C)ccc32)c2ccccc21 (stereo not drawn) [Example C-3] | 74,000 | 58% | 590 nm
3 | CCOc1ccc(N(c2ccc3c(c2)Oc2cc(N(c4ccc(OCC)cc4)c4ccc(OC)cc4C)ccc2C32OC(=O)c3ccccc32)c2ccc(OC)cc2C)cc1 [Example C-4] | 68,000 | 68% | 592 nm
4 | CCN(CCC(C)C)c1ccc2c(c1)Oc1cc(C)c(Nc3ccccc3)cc1C21OC(=O)c2ccccc21 (stereo not drawn) [Example C-2] | 32,000 and 20,000 | 76% | 450 nm and 590 nm
